In PubChem BioAssay AID1794845 (National Center for Advancing Translational Sciences (NCATS), 2023):
The campaign covered roughly 6,900 compounds. Fewer than 10 were called active. The call rests on the fitted dose curve; in most records, active means well fitted curve in the direction sought with a large enough effect; inconclusive means small, poorly fitted or top-dose-only effect, or another doubt; inactive means no such curve, though single readings can be large or run the other way. This is one part of the list.

Sequences of proteins named here, by UniProt entry; tags and fusion partners are left off. A change or cut given only in a name is not applied to a line headed by its entry.
UniProt C7C422: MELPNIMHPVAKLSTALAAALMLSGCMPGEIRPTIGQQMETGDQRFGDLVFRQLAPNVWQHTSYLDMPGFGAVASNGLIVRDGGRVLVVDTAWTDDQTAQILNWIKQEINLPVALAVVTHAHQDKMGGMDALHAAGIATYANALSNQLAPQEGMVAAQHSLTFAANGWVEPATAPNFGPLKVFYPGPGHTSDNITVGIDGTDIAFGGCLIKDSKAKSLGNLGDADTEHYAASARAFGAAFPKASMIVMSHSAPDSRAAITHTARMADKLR

What follows are compounds tested against Metallo-beta-lactamase type 2 (Klebsiella pneumoniae) (UniProt C7C422) (assay: qHTS to identify inhibitors of the New Delhi Metallo-beta-lactamase (NDM): primary screen against the NCATS Gemini Collection). Details: NDM-1 enzyme, meropenem hydrolysis, absorbance 300 nm; at 38.4 µM (top of the series) unless noted.
From the text: Assay Submitter (PI): James Inglese Ph.D., Patricia Dranchak Ph.D., Mahesh Aitha Ph.D. Assay Development and Screening Technology Laboratory (ADST) National Center for Advancing Translational Sciences (NCATS), Rockville, MD National Institute of Health (NIH), Bethesda, Maryland The metallo-beta-lactamases (MBL) are a main antibiotic resistance mechanism evolved by bacteria. There is an urgent clinical need for MBL inhibitors to mitigate this growing threat. To support a machine-based learning study, qHTS has been used to experimentally test inhibitors identified by prediction tools.
PROTOCOL TABLE (as described by Inglese et al., 2007) SEQUENCE No. (e.g., 1, 2, 3, etc.); […] (e.g., enzyme, Incubation, Reagent, etc.); VALUE; DESCRIPTION 1; NDM-1; 4 uL of 3 nM enzyme [2 nM final] in 50 mM HEPES (pH 7.0), 1 uM […], 0.01% Tween20; Use BioRaptr to dispense into Aurora black, clear bottom low base 1536-well plates 2; Compounds; 23 nL; Use Pin Tool (Wako) to transfer DMSO control and library compounds in DMSO 3; Incubate; >30 min 4; Reagent; 2 uL of 150 uM meropenem [50 uM final] 5; Incubate; 30 min. 6; Detector; Absorbance at 300 nm (bandwidth = 5 nm, 25 flashes/well) on Tecan Infinity NOTES (numbers refer to sequence above) 1; Column 1 of each plate received assay buffer without enzyme and columns 2-48 received enzyme for a final assay concentration of 2 nM. 2; Control plate contained DMSO in columns 1, 2, 3, and 4. 3; Compound interaction with enzyme. 4; Meropenem substrate was prepared in the same assay buffer as step 1 for a final assay concentration of 50 uM and added to all wells across the assay plates. 5; Substrate interaction with enzyme, plateau phase of kinetics. 6; Default reader settings were applied for absorbance read at 300 nm, bandwidth = 5 nm, 25 flashes/well. References: Inglese J, Shamu CE, Guy RK. 2007. Reporting data from high-throughput screening of small-molecule libraries. Nat Chem Biol. doi:10.1038/nchembio0807-438 Yasgar A, Shinn P, Jadhav A, Auld D, Michael S, Zheng W, Austin CP, Inglese J, Simeonov A. 2008. Compound Management for Quantitative High-Throughput Screening. J Lab Autom 13:79 - 89. doi:10.1016/j.jala.2007.12.004
Further: % of control where 0% means no effect.

Activity % (negative = inhibition), inactive:
O=C([C@@H]1C[C@H](F)CN1C(=O)CCCc1ccccc1)N1CCCCC1 -1.34%, C=CCN(C)C(=O)[C@@H](C)C1CC[C@@]2(C)Cc3sc(-c4cccnc4)nc3[C@@H](C)[C@@H]2[C@H]1O (stereo not given in full) 5.62% [at 57.5 µM], CCCN(C)C(=O)CCc1ccnc(N2CCOCC2)c1 -6.07%, CCC(C(=O)N1CCC2(CC1)C(=O)N(CC(=O)NCC(C)C)CN2c1ccccc1)c1ccccc1 (stereo not given) -0.717%, Cc1cnc(C(=O)N2CCC3(CC2)CCC(O)(CN(C)C)CC3)cn1 -3.61%, Cc1ccncc1C(=O)N1CC[C@@H]2CN(S(C)(=O)=O)[C@@H]2C1 107%, O=C(c1ccc2ccccc2n1)N1CC2CC(C1)[C@H]1CCCC(=O)N1C2 (stereo not given in full) 7.86%, Cc1ncccc1C(=O)N1C[C@H]2OC(=O)N(CCc3cccc(Cl)c3)[C@H]2C1 2.85%, COc1cccn(CC(=O)N2CCN(c3ccccc3C#N)CC2)c1=O 6.61%, CCCS(=O)(=O)N1CCC2(CC1)c1[nH]c3ccccc3c1CCN2C -0.435%, N#Cc1cccc(C(=O)N2CCCCC2CCn2cc(-c3ccccc3)nn2)c1 (stereo not given) -0.239%, Cn1c(Cn2cccn2)nnc1C1CCCN(C(=O)c2ccoc2)C1 (stereo not given) -1.41%, CN(CC1CCOCC1)C(=O)c1ccsc1 6.56%, O=C(NC1CCCN(c2ccc3nnc(-c4ccccc4)n3n2)C1)c1ccc(F)cc1 (stereo not given) -6.46%, Cc1ccc(CNC(=O)N2CCCC(c3nn[nH]n3)C2)cc1 (stereo not given) 3.32%, N#Cc1cccc(-c2cn3c(n2)N(C(=O)c2ccccc2F)CCC3)c1 6.36%, COc1coc(C(=O)NCCC2CN(c3cnn(C)c(=O)c3)CCO2)cc1=O (stereo not given) 5.77%, O=C(NCCc1ccccn1)c1ccc(OC2CCNCC2)nc1 91.1%, Cc1ccc(CN2CC(N(CC3CC3)C3CCOCC3)C2)cc1 0.279%, COCCCNC(=O)c1ccc2nnc(Cc3ccc(Cl)cc3)n2c1 10.6% [at 57.5 µM], CCCn1cc(NC(=O)C[C@H]2NC(=O)c3ccccc3NC2=O)c(C)n1 0.548%, O=C(NC1CCCC1)N1CCCC(C(=O)N2CCC(c3nc4ncccc4[nH]3)C2)C1 (stereo not given) 7.24%, O=C([C@@H]1CNC[C@H](C(=O)N2CCN(c3nccs3)CC2)C1)N1CCCC1 3.77%, Cc1nnc2n1CCC(NS(=O)(=O)c1ccccc1F)CC2 (stereo not given) -0.503%, O=C(c1csc(-c2cccs2)n1)N1CCC2(CCCO2)CC1 19.6%, Cc1cnc(CC2CCCN(S(=O)(=O)c3ccccc3)C2)n1CC1CC1 (stereo not given) 9.97%, Cc1ccc(C)c(NC(=O)CN2C(=O)C(c3ccccc3)=NC23CCCC3)c1 1%, COCC1(c2nc(C3CCOCC3)nn2-c2ccccc2)CCC1 5.86%, Cc1ccc(C)c(NC(=O)N2C[C@H](c3nc(-c4cccnc4)no3)[C@@H](C)C2)c1 -2.45%, CN(CC[C@H]1CN(C(=O)Cc2cccs2)CC[C@H]1CC(=O)O)c1ccccc1 14.6% [at 57.5 µM], CN(C)c1ccc(C(=O)N2CCN3C(=O)N(CC(N)=O)C(=O)[C@@H]3C2)cc1 10.1% [at 57.5 µM], C=CCNC(=O)C(NC(=O)c1cccs1)C1CCN(C(=O)c2ccc(F)cc2)CC1 (stereo not given) 4.52%, COc1ccc(CC(=O)N2C[C@@H](C(=O)O)[C@H](c3ccccc3)C2)c(OC)c1 -10.9%, CNC(=O)[C@@H]1C[C@@H](O)CN1C1CCN(C(=O)CCc2nc3ccccc3s2)CC1 -1.22%, COCC(=O)NC1(Cc2cc(-c3ccc(OC)cc3)on2)COC1 10.3% [at 57.5 µM], CCc1ccc(NC(=O)Cn2nc3n(c2=O)CCCC3)cc1 -0.266%, CNC(=O)[C@@H]1CN(C(=O)Cn2nc(C(F)(F)F)cc2C)C[C@H]1CO 55.8%, CC(C)CN1C(=O)N(Cc2ccccn2)C(=O)C12CCN(Cc1ccc3c(c1)CCO3)CC2 8.1%, O=C(CC1COCCN1)N1CCC2(CCC(=O)N(CCc3ccccc3)C2)CC1 (stereo not given) 9.68%, CSc1nccc(N2CCC(c3nccn3Cc3cccnc3)CC2)n1 0.802%, Cc1cnc(CC2CCCN(C(=O)N(C)C)C2)n1C(C)C (stereo not given) 0.126%, COCCN1C(=O)[C@H]2CN(Cc3ccc(C)s3)C[C@H]2C1=O -0.313%, c1ccc(-c2noc(CC3CCOC4(CCN(Cc5cccnc5)CC4)C3)n2)cc1 (stereo not given) 28.6%, CCCC1(CO)CCCN(CC(=O)NC(C)(C)CC)C1 (stereo not given) 3.11%, O=C(NCc1cc2n(n1)CCCNC2)c1ccc(Cn2cnnn2)cc1 1.78%, CN(Cc1ccccc1)Cc1cn([C@H]2CO[C@H]3[C@@H]2OC[C@@H]3NCc2ccccc2)nn1 8.03% [at 57.5 µM], CN(C)CCN1CC2(CCN(C(=O)CCCS(N)(=O)=O)CC2)OC1=O -0.482%, O=C(NCCc1ccc(F)cc1)c1cc(CN2CCOCC2)on1 -0.279%, Cc1cccc(C(=O)N2CCCCCCN(C)C(=O)[C@@H]3CCC[C@@H]32)c1 16.9%, CN(Cc1ccno1)Cc1cn(C)nc1-c1ccc(C2CCCCC2)cc1 1.48%, COc1cccc(CN[C@H]2[C@H](O)[C@H](O)C[C@@H]2c2ccc(N3CCOCC3)nc2)c1 -4.89% [at 57.5 µM], CN1CCCCCCN(C(=O)c2cc(CN3CCOCC3)on2)[C@H]2CCC[C@H]2C1=O 3.95%, CN(c1cc(=O)c2ccnc(-c3cncnc3)c2o1)C1CCOCC1 24% [at 57.5 µM], O=C1CC(c2noc(COc3ccccc3)n2)CN1C1CCCCC1 (stereo not given) 9.88%, O=C1CCCCC(C(=O)N2CCOCC2)N1 (stereo not given) -1.86%
